Measurements published in doi:10.1101/2024.03.08.584044.
No constants are given. Whether binding was seen depends on the method and setting. In cells and extracts the contact can be indirect. A result given as binding can be weak or reduced; the word gives no strength.

Molecular target: Exo70 (endogenous, MDBK cells) (bovine (endogenous in MDBK))
Experiment: co-IP

B1: Rab11a (endogenous, MDBK cells) (protein, UniProt Q2TA29 1-216)
chain: MGTRDDEYDYLFKVVLIGDSGVGKSNLLSRFTRNEFNLESKSTIGVEFATRSIQVDGKTIKAQIWDTAGQERYRAITSAYYRGAVGALLVYDIAKHLTYENVERWLKELRDHADSNIVIMLVGNKSDLRHLRAVPTDEARAFAEKNGLSFIETSALDYTNVEAAFQTILTEIYRIVSQKQMSDRRENDMSPSNNVVPIHVPPTTENKPKVQCCQNI
Question: How did the binding turn out when B1 was run?
Answer: binds
